Data set [1] has as its target T1, Iron regulatory protein 1 (IRP1) (UniProt P21399).
T1 sequence (looked up, limits assumed): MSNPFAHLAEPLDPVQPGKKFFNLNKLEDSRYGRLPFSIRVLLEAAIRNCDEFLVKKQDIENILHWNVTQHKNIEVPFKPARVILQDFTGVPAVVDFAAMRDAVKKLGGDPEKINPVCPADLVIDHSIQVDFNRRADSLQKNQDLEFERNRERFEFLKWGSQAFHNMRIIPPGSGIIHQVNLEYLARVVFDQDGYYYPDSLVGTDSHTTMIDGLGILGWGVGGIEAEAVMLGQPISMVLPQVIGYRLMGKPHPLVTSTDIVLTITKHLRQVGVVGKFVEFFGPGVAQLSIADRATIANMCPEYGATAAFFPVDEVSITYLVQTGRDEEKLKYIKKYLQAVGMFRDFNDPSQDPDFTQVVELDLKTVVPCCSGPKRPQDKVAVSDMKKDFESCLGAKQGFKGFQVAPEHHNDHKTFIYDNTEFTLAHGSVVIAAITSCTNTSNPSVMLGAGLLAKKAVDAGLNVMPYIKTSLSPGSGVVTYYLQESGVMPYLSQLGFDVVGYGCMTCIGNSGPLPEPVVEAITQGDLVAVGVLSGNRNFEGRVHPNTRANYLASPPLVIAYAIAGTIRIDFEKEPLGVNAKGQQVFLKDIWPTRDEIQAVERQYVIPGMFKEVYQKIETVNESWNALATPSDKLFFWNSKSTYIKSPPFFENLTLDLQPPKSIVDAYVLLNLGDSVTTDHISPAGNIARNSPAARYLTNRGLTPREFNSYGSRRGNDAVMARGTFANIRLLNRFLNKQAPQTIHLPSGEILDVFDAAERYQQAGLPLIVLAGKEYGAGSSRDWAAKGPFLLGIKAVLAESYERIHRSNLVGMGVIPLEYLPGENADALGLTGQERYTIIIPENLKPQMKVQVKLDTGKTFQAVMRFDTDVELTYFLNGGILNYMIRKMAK
Briefly: fluorescence quenching (intrinsic). The following applies: 50 uM Fe2+, 20 mM HEPES pH 7.4, 100 mM KCl, 1 mM MgCl2, 50 nM IRP1, 0-200 nM RNA, 15 min, 25 °C (5-30 °C series), Fe2+ 50 uM anaerobic where stated, commercial protein.

Data set [2] has as its target T1, Iron regulatory protein 1 (IRP1). Put plainly: fluorescence quenching, Scatchard. The conditions noted are these: 50 uM Fe2+, 25 °C; 20 mM HEPES pH 7.4, 100 mM KCl, 1 mM MgCl2; 50 nM IRP1, 0-200 nM RNA; 15 min; 25 °C (5-30 °C series); Fe2+ 50 uM anaerobic where stated; commercial protein.

The record followed here is publication PMC11853559, “α-Synuclein Iron-Responsive-Element RNA and Iron Regulatory Protein Affinity Is Specifically Reduced by Iron in Parkinson’s Disease”.

For at least one entry, the source does not settle the construct or the ends of the probe. Tags and fusion partners may be left off the protein sequences shown.

For orientation: Kd means a measure of binding affinity in units of concentration. For “ACUGGGAGUGGCCAUUCGACGACAGUGUGGUGUAAAGGAAUUCAUUAGCC [alpha-Syn IRE RNA (SNCA 5'-UTR)]”, the dissociation constant Kd worked out at 29.6 nM in data set [1] (5 °C); 54.4 nM in data set [1] (10 °C); 88.7 nM in data set [1] (15 °C); 124 nM in data set [1] (20 °C); 199 nM in data set [1] (30 °C); 157 nM in data set [1] (anaerobic, 25 °C). For the same sequence, the Ka in data set [2] is 6.4 10^6 M-1.
